Source: article PMC8986748
Results are given in words; binding and its absence hold for the method and conditions named. Binding seen in cells or lysates may run through a third protein. Some entries that bind do so weakly or less than the wild type. Blank lines part the entries; values can stand above or below the molecule they belong to.

The chains behind the UniProt entries cited, without tags or fusion partners. Residues count along the entry.
UniProt P30561, residues 10-848: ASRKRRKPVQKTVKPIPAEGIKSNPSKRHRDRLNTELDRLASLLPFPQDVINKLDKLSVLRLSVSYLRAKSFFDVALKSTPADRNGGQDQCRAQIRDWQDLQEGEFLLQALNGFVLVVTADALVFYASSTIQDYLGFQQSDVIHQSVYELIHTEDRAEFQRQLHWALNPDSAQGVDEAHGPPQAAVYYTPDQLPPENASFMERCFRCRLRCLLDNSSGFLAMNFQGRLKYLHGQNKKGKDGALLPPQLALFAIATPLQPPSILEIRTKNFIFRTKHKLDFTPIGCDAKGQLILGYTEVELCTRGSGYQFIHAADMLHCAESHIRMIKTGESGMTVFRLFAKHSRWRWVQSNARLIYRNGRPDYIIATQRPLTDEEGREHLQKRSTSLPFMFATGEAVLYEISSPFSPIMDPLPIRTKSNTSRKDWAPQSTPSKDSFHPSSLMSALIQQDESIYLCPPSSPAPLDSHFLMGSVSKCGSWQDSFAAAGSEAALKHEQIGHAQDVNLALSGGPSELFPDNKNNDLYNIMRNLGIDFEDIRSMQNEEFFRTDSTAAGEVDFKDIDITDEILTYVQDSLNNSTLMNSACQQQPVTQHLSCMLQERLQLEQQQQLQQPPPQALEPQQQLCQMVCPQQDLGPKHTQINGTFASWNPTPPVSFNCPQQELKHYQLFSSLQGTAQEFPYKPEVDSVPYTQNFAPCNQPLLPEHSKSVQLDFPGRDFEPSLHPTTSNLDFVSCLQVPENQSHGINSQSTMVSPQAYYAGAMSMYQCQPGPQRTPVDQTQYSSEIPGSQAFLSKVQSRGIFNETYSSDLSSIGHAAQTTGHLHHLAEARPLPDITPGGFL
UniProt P53762: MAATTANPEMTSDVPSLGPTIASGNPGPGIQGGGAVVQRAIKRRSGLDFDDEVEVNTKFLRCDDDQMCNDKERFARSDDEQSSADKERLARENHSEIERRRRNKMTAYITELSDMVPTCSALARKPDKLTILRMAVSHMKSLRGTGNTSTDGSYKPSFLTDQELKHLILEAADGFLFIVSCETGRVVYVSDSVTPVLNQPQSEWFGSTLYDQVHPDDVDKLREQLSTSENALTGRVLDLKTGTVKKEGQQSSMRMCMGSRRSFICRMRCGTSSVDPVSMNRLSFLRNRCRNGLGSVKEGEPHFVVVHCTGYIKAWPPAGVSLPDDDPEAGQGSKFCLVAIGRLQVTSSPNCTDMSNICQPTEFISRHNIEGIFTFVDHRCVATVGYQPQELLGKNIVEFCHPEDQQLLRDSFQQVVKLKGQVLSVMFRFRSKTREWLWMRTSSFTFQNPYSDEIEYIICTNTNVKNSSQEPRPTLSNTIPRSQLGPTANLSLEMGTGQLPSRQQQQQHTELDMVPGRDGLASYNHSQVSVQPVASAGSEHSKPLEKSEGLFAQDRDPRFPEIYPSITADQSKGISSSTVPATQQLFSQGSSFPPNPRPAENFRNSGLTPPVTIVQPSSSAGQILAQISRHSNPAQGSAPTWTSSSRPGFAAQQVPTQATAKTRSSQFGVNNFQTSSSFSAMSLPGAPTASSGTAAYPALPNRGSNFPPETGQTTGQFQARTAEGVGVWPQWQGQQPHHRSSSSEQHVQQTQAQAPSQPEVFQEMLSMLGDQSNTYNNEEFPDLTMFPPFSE

Legend:
[1] = biological target: aryl hydrocarbon receptor (AhR) (mouse (endogenous in MEFs)) (UniProt P30561); assay: co-IP; endogenous proteins; cell lysates (300 ug) from cytosolic and nuclear fractions of WT and Jdp2-/- MEFs; immunoprecipitated with anti-AhR or (WT MEFs) anti-Jdp2 antibodies on protein A/G beads; western blot; IgG as negative control
[2] = biological target: T1, Jun dimerization protein 2 (Jdp2) (mouse (endogenous in MEFs)) (UniProt P97875); assay: as above
T1 sequence: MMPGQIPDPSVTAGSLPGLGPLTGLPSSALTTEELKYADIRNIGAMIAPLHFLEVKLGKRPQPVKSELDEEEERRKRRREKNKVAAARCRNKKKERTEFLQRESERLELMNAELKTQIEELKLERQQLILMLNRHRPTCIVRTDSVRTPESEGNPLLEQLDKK

binding [1]: binds
Molecule: AhR nuclear translocator (Arnt) (from UniProt P53762 1-791)

binding [2]: binds
Molecule: aryl hydrocarbon receptor (AhR) (from UniProt P30561 10-848)

binding [1]: binds
binding [2]: binds
B1: nuclear factor (erythroid-derived 2)-like 2 (Nrf2) (protein, UniProt Q60795 1-597)
chain: MMDLELPPPGLQSQQDMDLIDILWRQDIDLGVSREVFDFSQRQKDYELEKQKKLEKERQEQLQKEQEKAFFAQFQLDEETGEFLPIQPAQHIQTDTSGSASYSQVAHIPKQDALYFEDCMQLLAETFPFVDDHESLALDIPSHAESSVFTAPHQAQSLNSSLEAAMTDLSSIEQDMEQVWQELFSIPELQCLNTENKQLADTTAVPSPEATLTEMDSNYHFYSSISSLEKEVGNCGPHFLHGFEDSFSSILSTDDASQLTSLDSNPTLNTDFGDEFYSAFIAEPSDGGSMPSSAAISQSLSELLDGTIEGCDLSLCKAFNPKHAEGTMEFNDSDSGISLNTSPSRASPEHSVESSIYGDPPPGFSDSEMEELDSAPGSVKQNGPKAQPAHSPGDTVQPLSPAQGHSAPMRESQCENTTKKEVPVSPGHQKAPFTKDKHSSRLEAHLTRDELRAKALHIPFPVEKIINLPVDDFNEMMSKEQFNEAQLALIRDIRRRGKNKVAAQNCRKRKLENIVELEQDLGHLKDEREKLLREKGENDRNLHLLKRRLSTLYLEVFSMLRDEDGKPYSPSEYSLQQTRDGNVFLVPKSKKPDTKKN
